Several values for one entry are separate records, joined by “and”; a condition that tells them apart may be missing. Identical values can stand only once.
What was measured:
[1] = test system: gamma-secretase; experiment: Six-day once-a-day oral dosing PK/PD in Tg2576 mice (brain, plasma, CSF Aβ); type: in vivo; conditions: for %Aβ42 lowering / %Aβ38 lowering / %Aβ40 lowering: 24 hrs, vs vehicle; for Brain exposure / Plasma exposure: 24 hrs post final dose
[2] = Plasma protein binding (in vitro studies); type: in vitro ADME
[3] = Pharmacokinetic properties in mouse; type: in vivo
[4] = Pharmacokinetic properties in rat; type: in vivo
[5] = Tg2576 mouse CSF, 30 mg/kg oral QD six days
[6] = Tg2576 mouse CSF, 60 mg/kg oral QD six days
[7] = Tg2576 mouse CSF, 90 mg/kg oral QD six days
[8] = Tg2576 mouse brain, 10 mg/kg oral QD six days
[9] = Tg2576 mouse brain, 30 mg/kg oral QD six days
[10] = Tg2576 mouse brain, 60 mg/kg oral QD six days
[11] = Tg2576 mouse brain, 90 mg/kg oral QD six days
[12] = Tg2576 mouse plasma, 10 mg/kg oral QD six days
[13] = Tg2576 mouse plasma, 30 mg/kg oral QD six days
[14] = Tg2576 mouse plasma, 60 mg/kg oral QD six days, 60 mg/kg
[15] = Tg2576 mouse plasma, 90 mg/kg oral QD six days
[16] = Tg2576 mouse, 10 mg/kg oral QD six days, 10 mg/kg
[17] = Tg2576 mouse, 30 mg/kg oral QD six days
[18] = Tg2576 mouse, 60 mg/kg oral QD six days
[19] = Tg2576 mouse, 90 mg/kg oral QD six days, 90 mg/kg

Structure (SMILES): CCO[C@@H]([C@H]1C[C@@H](C)[C@H]2[C@@H](O1)[C@H](O)[C@@]1(C)[C@@H]3CC[C@H]4C(C)(C)[C@@H](O[C@H]5CN(C6CN(C(C)C)C6)CCO5)CC[C@@]45C[C@@]35CC[C@]21C)C(C)(C)O [SPI-1865]
- %Aβ42 lowering ([1]; Tg2576 mouse CSF, 10 mg/kg oral QD six days): 1 ± 11%
- %Aβ38 lowering [1, 5]: 4 ± 10%
- %Aβ40 lowering [1, 5]: 0 ± 11%
- %Aβ42 lowering [1, 5]: 6 ± 11%
- %Aβ38 lowering [1, 6]: 5 ± 9%
- %Aβ40 lowering [1, 6]: -7 ± 12%
- %Aβ42 lowering [1, 6]: 22 ± 15%
- %Aβ38 lowering [1, 7]: 9 ± 11%
- %Aβ40 lowering [1, 7]: 10 ± 13%
- %Aβ42 lowering [1, 7]: 33 ± 14%
- %Aβ38 lowering [1, 8]: -16 ± 12%
- %Aβ40 lowering [1, 8]: -14 ± 11%
- %Aβ42 lowering [1, 8]: -9 ± 10%
- %Aβ38 lowering [1, 9]: 6 ± 9%
- %Aβ40 lowering [1, 9]: 6 ± 9%
- %Aβ42 lowering [1, 9]: 7 ± 9%
- %Aβ38 lowering [1, 10]: 14 ± 10%
- %Aβ40 lowering [1, 10]: 2 ± 10%
- %Aβ42 lowering [1, 10]: 19 ± 8%
- %Aβ38 lowering [1, 11]: 27 ± 8%
- %Aβ40 lowering [1, 11]: 8 ± 9%
- %Aβ42 lowering ([1]; Tg2576 mouse brain, 90 mg/kg oral QD six days, 90 mg/kg): 30% and 30 ± 6%
- %Aβ38 lowering [1, 12]: 25 ± 5%
- %Aβ40 lowering [1, 12]: 6 ± 7%
- %Aβ42 lowering [1, 12]: 25 ± 5 %
- %Aβ38 lowering [1, 13]: 26 ± 5%
- %Aβ40 lowering [1, 13]: 17 ± 5%
- %Aβ42 lowering ([1]; Tg2576 mouse plasma, 30 mg/kg oral QD six days, 30 mg/kg): 58% and 58 ± 3 %
- %Aβ40 lowering ([1]; Tg2576 mouse plasma, 60 mg/kg oral QD six days): 15 ± 7%
- %Aβ38 lowering [1, 14]: 50 ± 2.4% and 50 ± 5 %
- %Aβ42 lowering [1, 14]: 71 ± 2%
- %Aβ38 lowering [1, 15]: 46 ± 6 %
- %Aβ40 lowering [1, 15]: 9 ± 6%
- %Aβ42 lowering ([1]; Tg2576 mouse plasma, 90 mg/kg oral QD six days, 90 mg/kg): 76 ± 2% and 76%
- Brain exposure [1, 16]: 0.5 µM and 0.5 ± 0.1 µM
- Plasma exposure [1, 16]: 1 µM and 1.1 ± 0.2 µM
- free plasma levels ([1]; Tg2576 mouse, 30 mg/kg group, calculated): 60 nM
- Brain exposure [1, 17]: 1.3 ± 0.1 µM
- Plasma exposure [1, 17]: 2.5 ± 0.1 µM
- Brain exposure [1, 18]: 3.9 ± 0.4 µM
- Plasma exposure [1, 18]: 5.4 ± 0.5 µM
- free plasma fraction (concentration) ([1]; Tg2576 mouse, 90 mg/kg dose group, calculated, 90 mg/kg): 154 nM
- Brain exposure [1, 19]: 6.9 µM and 6.9 ± 0.6 µM
- Plasma exposure [1, 19]: 6.4 ± 0.5 µM and 6.4 µM
- free compound in plasma [2]: 2.4%
- protein bound in the plasma ([2]; in vitro studies): 97.6%
- Tmax [3]: approximately 4 hrs
- half-life [3]: 8 h
- T1/2 ([3]; intravenous drug delivery data): 8.3 h
- Volume ([3]; intravenous drug delivery data): 9.2 L/kg
- half-life ([4]; following a single oral dose): > 24 h
- T1/2 ([4]; intravenous drug delivery data): 129 h
- Volume ([4]; intravenous drug delivery data): 5.8 L/kg

— paper PMC3707052 (Alzheimer's Research & Therapy, 2013)
